According to US6958384 (dated 2005):

Experiment: peptide synthesis
Settings: coupling step

Boc-(γ-ACPC)4-OBn
step yield: 53%
